At least one structure is not confirmed: it was looked up by name or label, or the drawing left a doubt.
Tested on: MAST1
Assay: Dexamethasone-induced MAST1 activity (MEK activity) in cisplatin-treated cancer cells with lestaurtinib
Type: cell-based, human
Conditions: 5 μg/ml cisplatin, 500 nM dexamethasone, 100 nM lestaurtinib

Compound: C[C@]12O[C@H](C[C@]1(O)CO)n1c3ccccc3c3c4c(c5c6ccccc6n2c5c31)CNC4=O [lestaurtinib, 6-hydroxy-6-(hydroxymethyl)-5-methyl-5,6,7,8,14,15-hexahydro-13H-16-oxa-4b,8a,14-triaza-5,8-methanodibenzo[b,h]cycloocta[jkl]cyclopenta[e]-as-indacen-13-one]
- dexamethasone-induced MAST1 activity: effectively attenuated dexamethasone-induced MAST1 activity

Reference: patent publication US12527818B2, “Platinum-based chemotherapy, mast binding agents, glucocorticoid receptor (GR) binding agents, and/or HSP90 binding agents for uses in treating cancer” (Emory University, priority 2019, dated 2026)
